Source: PMC5082686
No constants are given. Whether binding was seen depends on the method and setting. In cells and extracts the contact can be indirect. Some entries that bind do so weakly or less than the wild type.

Sequences of proteins named here, by UniProt entry; tags and fusion partners are left off.
UniProt Q9R117: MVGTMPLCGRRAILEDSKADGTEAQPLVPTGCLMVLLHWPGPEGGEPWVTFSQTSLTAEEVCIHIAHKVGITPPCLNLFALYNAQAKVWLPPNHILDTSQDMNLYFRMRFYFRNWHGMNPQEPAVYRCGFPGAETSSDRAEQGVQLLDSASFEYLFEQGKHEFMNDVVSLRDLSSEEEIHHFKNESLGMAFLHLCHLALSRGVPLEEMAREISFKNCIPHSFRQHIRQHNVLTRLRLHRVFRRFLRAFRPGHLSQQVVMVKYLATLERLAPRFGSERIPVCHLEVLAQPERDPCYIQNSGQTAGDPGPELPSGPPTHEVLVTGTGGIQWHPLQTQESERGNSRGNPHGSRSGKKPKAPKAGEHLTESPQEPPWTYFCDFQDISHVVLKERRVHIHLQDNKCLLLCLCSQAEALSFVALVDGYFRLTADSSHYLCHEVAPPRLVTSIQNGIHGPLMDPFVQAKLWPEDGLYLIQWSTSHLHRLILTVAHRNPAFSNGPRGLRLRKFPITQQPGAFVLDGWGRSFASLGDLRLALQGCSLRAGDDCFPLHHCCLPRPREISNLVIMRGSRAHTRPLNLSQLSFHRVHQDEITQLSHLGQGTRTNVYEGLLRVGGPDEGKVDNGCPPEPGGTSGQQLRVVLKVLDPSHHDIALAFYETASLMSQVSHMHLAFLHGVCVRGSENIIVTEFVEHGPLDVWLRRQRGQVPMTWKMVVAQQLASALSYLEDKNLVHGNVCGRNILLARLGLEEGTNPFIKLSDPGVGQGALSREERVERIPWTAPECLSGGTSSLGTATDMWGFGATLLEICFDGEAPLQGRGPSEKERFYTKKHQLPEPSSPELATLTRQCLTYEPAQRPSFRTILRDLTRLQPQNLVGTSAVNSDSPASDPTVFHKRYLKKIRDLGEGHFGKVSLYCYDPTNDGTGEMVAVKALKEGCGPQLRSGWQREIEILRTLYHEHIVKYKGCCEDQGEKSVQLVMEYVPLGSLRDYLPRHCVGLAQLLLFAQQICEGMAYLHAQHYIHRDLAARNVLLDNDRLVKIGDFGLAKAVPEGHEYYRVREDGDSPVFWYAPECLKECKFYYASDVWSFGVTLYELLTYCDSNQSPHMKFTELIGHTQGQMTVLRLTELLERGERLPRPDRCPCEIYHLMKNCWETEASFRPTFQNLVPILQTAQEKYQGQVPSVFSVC
UniProt O35864: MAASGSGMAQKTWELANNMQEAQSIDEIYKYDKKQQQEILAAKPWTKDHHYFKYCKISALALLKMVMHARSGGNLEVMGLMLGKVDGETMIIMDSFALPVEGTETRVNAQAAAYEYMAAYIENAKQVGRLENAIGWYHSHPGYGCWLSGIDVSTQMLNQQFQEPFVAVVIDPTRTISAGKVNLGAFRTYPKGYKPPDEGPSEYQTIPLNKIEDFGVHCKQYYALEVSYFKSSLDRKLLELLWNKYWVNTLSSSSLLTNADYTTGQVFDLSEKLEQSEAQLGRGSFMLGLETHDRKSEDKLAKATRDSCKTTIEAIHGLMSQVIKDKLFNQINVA
UniProt Q6IYF8: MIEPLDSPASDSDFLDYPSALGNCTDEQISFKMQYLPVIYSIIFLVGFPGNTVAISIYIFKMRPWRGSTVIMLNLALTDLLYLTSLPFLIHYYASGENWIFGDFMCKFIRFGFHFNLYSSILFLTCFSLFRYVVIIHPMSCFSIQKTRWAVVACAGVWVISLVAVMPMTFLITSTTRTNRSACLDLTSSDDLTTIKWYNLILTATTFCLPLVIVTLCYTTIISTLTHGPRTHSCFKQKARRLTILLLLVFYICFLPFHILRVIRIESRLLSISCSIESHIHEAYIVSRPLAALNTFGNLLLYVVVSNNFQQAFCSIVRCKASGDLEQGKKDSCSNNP

Experiments:
[1] = molecular target: tyrosine kinase 2 (TYK2), endogenous (mouse (endogenous in the heart, by the legend; the text says isolated cardiomyocytes)) (UniProt Q9R117); assay: co-IP; RIPA protein extracts pre-cleared with Protein G/A agarose for 2 h at room temperature, incubated overnight with 5 ug of indicated antibody and 20 ul Protein G/A agarose; beads washed three times with RIPA buffer; Western blot
[2] = molecular target: COP9 signalosome complex subunit 5 (CSN5), endogenous (mouse (endogenous in mouse heart extracts, by the legend; the text says isolated cardiomyocytes)) (UniProt O35864); assay: as above

binding [1] | binding [2] | Substance
binds |  | COP9 signalosome complex subunit 5 (CSN5), endogenous (from UniProt O35864 1-334)
 | binds | oxoglutarate receptor 1 (OXGR1), endogenous (from UniProt Q6IYF8 1-337)
